Data source: PubChem BioAssay AID1259254 (NCATS, 2017)

- Aim: 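Gene knock-downs that lead to re-replication, shown by excess G2 DNA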 (primary screen)
- System: human HCT116 colorectal cancer cells
- Knock-down reagent: single siRNA against human genes
- Timing: 3 days
- Measured: 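Imaged Hoechst DNA stain sorts each cell into a cycle phase by DNA amount; per plate, G2 fraction set to 0% for non-targeting and 100% for GMNN siRNA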
- Reading the numbers: G2 robust z-score: higher = more G2 cells, more excess DNA replication
- Hit rule: 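An siRNA counts as active if its G2 robust z-score lies at least 5 MADs above the screen median; here such calls match roughly 38% of GMNN control or more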
Here is an unselected part of about 59,000 reagents. Over the whole deposit, about 1,550 (2.6%) got an active call. 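G2 share is only a proxy for re-replication; each gene was hit by three separate siRNAs, and active genes were retested.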 The numbers tell different reagents against one gene apart. Not all columns of the deposit are shown. Not given: the amount of reagent.

G2 robust z-score, by gene knocked down and reagent
LAMTOR1: #1 -0.711 inactive; #2 -0.254 inactive; #3 -0.352 inactive
ZNF827: #1 -0.649 inactive; #2 -0.187 inactive; #3 0.507 inactive
ATM: #1 -0.208 inactive; #2 -0.631 inactive; #3 -0.957 inactive
INSYN2A: #1 -0.304 inactive; #2 0.358 inactive; #3 -0.15 inactive
TSHZ1: #1 -0.394 inactive; #2 0.466 inactive; #3 -0.655 inactive
DMKN: #1 -0.828 inactive; #2 -0.218 inactive; #3 1.73 inactive
PARP15: #1 1.32 inactive; #2 0.281 inactive; #3 -1.06 inactive
TLCD5: #1 -0.694 inactive; #2 0.779 inactive; #3 1.95 inactive
HTR3E: #1 4.31 inactive; #2 -0.285 inactive; #3 -1.43 inactive
UQCR11: #1 -0.158 inactive; #2 -0.557 inactive; #3 1.46 inactive

No new results follow: entries from further up.
G2 robust z-score, by gene knocked down and reagent
LAMTOR1: #2 -0.254 inactive; #3 -0.352 inactive
ZNF827: #1 -0.649 inactive

Further entries follow.
G2 robust z-score, by gene knocked down and reagent
GALNT16: #1 0.756 inactive; #2 -0.0256 inactive; #3 -0.6 inactive
FFAR2: #1 -0.676 inactive; #2 1.84 inactive; #3 1.28 inactive
NOD1: #1 0.279 inactive; #2 2.14 inactive; #3 -0.657 inactive
RRAGB: #1 1.4 inactive; #2 1.12 inactive; #3 -1.22 inactive
ZNF623: #1 -0.404 inactive; #2 -0.761 inactive; #3 -0.493 inactive
RPS6KB1: #1 -1.12 inactive; #2 -1.39 inactive; #3 1.51 inactive
DLX1: #1 0.165 inactive; #2 0.113 inactive; #3 -0.399 inactive
WDFY1: #1 -0.366 inactive; #2 -0.344 inactive; #3 0.623 inactive
CDK2AP2: #1 -0.689 inactive; #2 0.707 inactive; #3 1.01 inactive
WIPF3: #1 0.773 inactive; #2 -0.598 inactive; #3 -0.417 inactive
ZNF443: #1 0.497 inactive; #2 -0.398 inactive; #3 -0.887 inactive
RRP12: #1 0.143 inactive; #2 -0.537 inactive; #3 -0.401 inactive
WASH6P: #1 -0.714 inactive; #2 -0.579 inactive; #3 3.83 inactive
